According to article PMC7840542:
Where a chain is given by its changes, count along the chain named. These are yes or no findings as the source states them, for the method shown. Some results given as binding are weak or reduced against the parent protein; the word gives no strength. Where a sequence is shown, tags or fusion partners need not be part of it.

T1: BD:ROH1D (Arabidopsis thaliana) (UniProt Q9CA69)
T1 sequence: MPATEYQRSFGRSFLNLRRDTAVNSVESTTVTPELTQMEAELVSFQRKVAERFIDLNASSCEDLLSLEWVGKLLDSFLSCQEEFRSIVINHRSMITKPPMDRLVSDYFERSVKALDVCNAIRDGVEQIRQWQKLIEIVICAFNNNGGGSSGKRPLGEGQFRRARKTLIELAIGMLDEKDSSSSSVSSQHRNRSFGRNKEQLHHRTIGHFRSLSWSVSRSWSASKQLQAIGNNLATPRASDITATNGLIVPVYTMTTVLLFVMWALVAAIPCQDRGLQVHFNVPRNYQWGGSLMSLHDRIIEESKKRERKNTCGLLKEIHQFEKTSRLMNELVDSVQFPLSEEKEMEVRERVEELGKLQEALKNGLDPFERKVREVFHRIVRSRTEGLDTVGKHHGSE

T2: BD:ROH1A (Arabidopsis thaliana) (UniProt Q9CAK4)
T2 sequence: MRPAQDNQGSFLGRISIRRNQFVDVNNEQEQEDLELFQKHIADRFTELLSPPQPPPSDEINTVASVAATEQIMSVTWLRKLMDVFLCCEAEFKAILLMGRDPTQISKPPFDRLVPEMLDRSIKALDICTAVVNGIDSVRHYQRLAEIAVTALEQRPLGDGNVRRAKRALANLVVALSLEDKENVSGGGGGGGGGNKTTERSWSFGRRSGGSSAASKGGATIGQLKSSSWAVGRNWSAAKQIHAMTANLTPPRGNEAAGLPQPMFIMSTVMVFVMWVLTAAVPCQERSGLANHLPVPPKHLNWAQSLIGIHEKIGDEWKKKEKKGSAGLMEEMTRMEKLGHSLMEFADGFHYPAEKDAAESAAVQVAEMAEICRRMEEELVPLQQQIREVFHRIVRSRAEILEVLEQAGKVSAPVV

B1: AD:AtEXO70C2 wild type (protein, UniProt Q9FFX6 1-695)
chain: MEKNDKDPDHDDKSKGDEKGDVVSDAHPSDDAHHQDGISNENVDVVGNAETDHQDPGDNNVDKVSQGEEAPEIRQTLESLSEELDQFLPTLSLHMEEHKDSTEEKGEDGYFQIPQFVGKFLDLFEEKLSKYDSGEPKTVWYQDPEEVSSLLEAVDRVSKLMGLLLNTKSCLDHHESLINHAGSIQQRAMAFLEDEFRIILEESVTKESVVVTDDSNSQRRSTADQQDHQNDVVVSQDHDQMLVPECGDQEIEYPGYPEDVVVVLRKIAEKMKAGGYGWECREVYLVGRRNILMRTLKQDCEFEKVSIDEVQKMSWDTLEREIPIWNKTFKDCSSLFFPGELKLAERIFPGDEGNLFCIVTHGLAIQFLGFAEAVAMTRRSTEKLFKILDIYETLRDSFPAMEELFPEELRSELRNEVTSARSRLGETAIHIFCDLEHSIKSDSSKTPVPGGAVHPLTRYTMNYLKYSCEYKDTLEQVFKSHSKMEREEEEPVESGNSAFASQLMRIMELLDGNLETKSKQYKDIPLSCIFMMNNGRYIVQKIKGSAEIHEVMGDTWCRRRSSELRNYHKNYQRETWGKLLGFLGHEGLMHNGKIVKPNLKERFKSFNATFDEIHKTQTTWVVNDEQLQSELRVSITAVMIPAYRAFMARFGQYLDPGRQTEKYVKYQPEDIEDLIDQLFEGNTSSSSTATARRRT
B2: AD:AtEXO70C2 phospho-dead (PD) variant (protein, UniProt Q9FFX6 1-695)
chain: B1 chain with T212A, S215A, S217A, T446A, S494A, S605A
B3: AD:AtEXO70C2 phospho-mimetic (PM) variant (protein, UniProt Q9FFX6 1-695)
chain: B1 chain with T212E, S215D, S217D, T446E, S494D, S605D

biological target: T1, BD:ROH1D (Arabidopsis thaliana); assay: two-hybrid; … GAL4 system, yeast AH109; ROH1 paralogs fused to the GAL4 DNA-binding domain (pGBKT7), EXO70C2 forms fused to the GAL4 activation domain (pGADT7); serial 30x dilutions spotted on -Trp-Leu, -Trp-Leu-His or -Trp-Leu-His-Ade plates, 3 days

| binding | Binder |
| --- | --- |
| binds weakly | B1 |
| binds weakly | B2 |
| binds weakly | B3 |

biological target: T2, BD:ROH1A (Arabidopsis thaliana); assay: as above

| binding | Binder |
| --- | --- |
| binds | B1 |
| binds | B2 |
| binds | B3 |
